Data taken from article doi:10.1101/2022.10.10.511527.
Results are given in words; binding and its absence hold for the method and conditions named. In cells and extracts the contact can be indirect. Some entries that bind do so weakly or less than the wild type. Where a sequence is shown, tags or fusion partners need not be part of it.

Sequences of proteins named here, by UniProt entry; tags and fusion partners are left off. A change or cut given only in a name is not applied to a line headed by its entry.
UniProt Q9D4H8, whole entry: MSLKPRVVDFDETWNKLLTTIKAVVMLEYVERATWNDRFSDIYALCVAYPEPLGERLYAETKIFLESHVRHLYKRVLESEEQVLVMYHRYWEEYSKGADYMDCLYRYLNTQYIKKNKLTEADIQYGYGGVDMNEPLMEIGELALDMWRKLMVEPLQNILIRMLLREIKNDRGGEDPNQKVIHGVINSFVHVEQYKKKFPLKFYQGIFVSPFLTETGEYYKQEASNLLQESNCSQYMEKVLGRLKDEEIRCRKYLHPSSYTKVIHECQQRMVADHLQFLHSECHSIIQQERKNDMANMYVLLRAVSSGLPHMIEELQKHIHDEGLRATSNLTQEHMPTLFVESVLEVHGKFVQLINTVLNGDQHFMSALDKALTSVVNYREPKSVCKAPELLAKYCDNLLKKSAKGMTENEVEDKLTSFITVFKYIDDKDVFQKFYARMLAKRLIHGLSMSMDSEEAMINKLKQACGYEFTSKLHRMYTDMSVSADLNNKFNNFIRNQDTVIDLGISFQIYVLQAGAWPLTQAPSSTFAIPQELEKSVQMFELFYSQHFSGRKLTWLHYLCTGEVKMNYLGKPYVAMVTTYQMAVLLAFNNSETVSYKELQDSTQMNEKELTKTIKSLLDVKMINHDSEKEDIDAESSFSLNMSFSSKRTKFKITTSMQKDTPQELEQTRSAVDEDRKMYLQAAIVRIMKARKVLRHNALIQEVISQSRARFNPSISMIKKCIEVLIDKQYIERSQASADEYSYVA

Experiments:
[1] = target: T1, HA/FLAG-PRAMEL7ΔN, one transgene copy in the Rosa26 locus of mouse ESCs (ESC+H/F-Pramel7ΔN) (mouse) (UniProt Q810Y8); test: co-IP
T1 sequence: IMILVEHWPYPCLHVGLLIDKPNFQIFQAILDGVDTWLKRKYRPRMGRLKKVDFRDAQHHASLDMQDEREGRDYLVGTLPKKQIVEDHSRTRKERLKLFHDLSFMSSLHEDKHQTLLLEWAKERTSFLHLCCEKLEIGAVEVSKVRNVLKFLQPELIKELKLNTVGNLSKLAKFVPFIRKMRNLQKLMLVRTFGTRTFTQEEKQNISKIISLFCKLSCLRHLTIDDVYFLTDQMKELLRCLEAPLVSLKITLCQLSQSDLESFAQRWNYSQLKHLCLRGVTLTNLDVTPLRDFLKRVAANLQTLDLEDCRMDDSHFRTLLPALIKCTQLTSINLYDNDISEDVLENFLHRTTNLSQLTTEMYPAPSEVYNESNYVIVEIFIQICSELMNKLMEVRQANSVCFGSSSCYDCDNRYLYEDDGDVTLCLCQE

[2] = target: T2, HA/FLAG-PRAMEL7WT, one transgene copy in the Rosa26 locus of mouse ESCs (ESC+H/F-Pramel7WT) (mouse) (UniProt Q810Y8); test: co-IP
T2 sequence: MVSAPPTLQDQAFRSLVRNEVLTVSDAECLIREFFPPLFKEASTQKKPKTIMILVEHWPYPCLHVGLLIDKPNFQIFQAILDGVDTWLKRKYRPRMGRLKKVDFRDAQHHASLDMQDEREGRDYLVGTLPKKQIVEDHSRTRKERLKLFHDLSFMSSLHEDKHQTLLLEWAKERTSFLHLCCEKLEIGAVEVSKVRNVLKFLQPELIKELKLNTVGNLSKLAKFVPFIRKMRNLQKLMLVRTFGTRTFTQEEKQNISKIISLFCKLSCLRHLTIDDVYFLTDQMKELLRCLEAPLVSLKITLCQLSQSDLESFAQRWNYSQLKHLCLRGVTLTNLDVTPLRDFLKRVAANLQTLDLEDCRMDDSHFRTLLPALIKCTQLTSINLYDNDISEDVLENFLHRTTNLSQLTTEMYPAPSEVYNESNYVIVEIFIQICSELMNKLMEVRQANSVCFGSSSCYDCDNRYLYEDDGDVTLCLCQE

- binding [1]: no binding
- binding [2]: binds
Substance: Cullin2 (CUL2), endogenous in mouse ESCs (from UniProt Q9D4H8 1-745)
